At least one peptide structure holds a part that was inferred or is arguable (an end, a ring closure or a residue). Where a SMILES comes first, the peptide text is derived from it.
Tests used:
senescent cells = assay: Senolytic activity: viability of senescent and non-senescent cells, MTT assay; type: cell-based
[1] = test system: cancer cell lines (J82, OVCAR3, SHSY5Y, HepG2, HCT116, MCF7); assay: Viability of cancer cell lines; type: cell-based, human; conditions: 10 μM for 24 hours or 100 μM
tumor = assay: Tumor size in mice; type: in vivo
M2 macrophages = assay: Gene expression in M2 macrophages (PMA-differentiated THP-1 cells); type: cell-based; conditions: THP-1, PMA 200 ng/ml 24 hours, then LPS 100 ng/ml or IL-4 20 ng/ml with NOSH for 24 hours
PC3 cells = assay: Autophagy: level of LC3 in PC3 cells; type: cell-based, human; conditions: 5 μM NOSH, 6 h
mitochondrial function = assay: Mitochondrial function: membrane potential by JC-1 staining; type: cell-based; conditions: preliminary results
[2] = test system: inflammatory markers (IFNγ, TNF-α, IL-12, IL-10, IL-1β, IL-2, IL-4, IL-6); assay: Plasma inflammatory markers in LPS-treated mice; type: in vivo; conditions: NOSH 10 mg/kg with LPS 10 mg/kg versus LPS-treated mice, plasma 2 hour later
[3] = test system: Tumor Cells (PC-3, OV90, U251); assay: Tumor cell viability by LDH release into the media; type: cell-based, human
[4] = test system: doxorubin induced senescent primary dermal fibroblast (HDFa); assay: Cytokine levels in conditioned media by meso scale discovery (MSD) assay; type: cell-based; conditions: 10 μM, 24 hr

CC[C@H](C)[C@H](NC(=O)[C@H](CC(C)C)NC(=O)[C@@H](NC(=O)[C@H](CC(C)C)NC(=O)[C@H](CCSC)NC(=O)[C@H](CC(C)C)NC(=O)[C@H](CO)NC(=O)[C@H](CC(C)C)NC(=O)[C@H](CO)NC(=O)[C@H](CCCNC(=N)N)NC(=O)CNC(=O)[C@H](CO)NC(=O)[C@H](CCCNC(=N)N)NC(=O)[C@H](CCCNC(=N)N)NC(=O)[C@@H](NC(=O)[C@H](C)NC(=O)[C@H](CC(C)C)NC(=O)[C@H](CC(C)C)NC(=O)[C@H](CC(C)C)NC(=O)CNC(=O)[C@H](Cc1ccccc1)NC(=O)[C@H](CC(C)C)NC(=O)[C@H](CCCNC(=N)N)NC(=O)[C@@H](N)CCSC)C(C)C)[C@@H](C)O)C(=O)N[C@@H](CCCNC(=N)N)C(=O)NCC(=O)N[C@@H](CC(C)C)C(=O)N[C@@H](CO)C(=O)N[C@@H](CCCCN)C(=O)N[C@@H](CCCNC(=N)N)C(=O)N[C@@H](CC(C)C)C(=O)NCC(=O)O [NOSH] (H-MRLFGLLLAVRRSGRSLSLMLTLIRGLSKRLG-OH)
viability of senescent cells versus non-senescent cells (senescent cells): preferentially reducing viability of senescent cells | viability of cancer cell lines [1]: effective in decreasing viability | tumor size (tumor): reduces tumor size | macrophage polarisation by gene expression (M2 macrophages): converted M2 Macrophages to M1 Macrophages | level of autophagy-related protein LC3 (PC3 cells): increased | mitochondrial function (membrane potential by JC-1 staining) (mitochondrial function): altered mitochondrial function | plasma level of inflammatory markers [2]: statistically significantly lowered level of inflammatory markers | Cell Viability in Tumor Cells (LDH release into the media) [3]: reduced | inflammatory response (cytokine levels in conditioned media) [4]: induced an inflammatory response in senescent cells

— patent US12577281B2, “Mitochondrial-derived peptides and analogs thereof for use as a therapy for age-related diseases including cancer” (University of Southern California, priority 2020, dated 2026)
